Laboratory results taken from PubChem BioAssay AID344 (DTP/NCI, 2004).
The list shows only some results of the screen, not a fair sample: it is rich in T/C values a quarter to a half above the control, in often repeated tests (any T/C) and in doses without a T/C. Further doses and runs are listed elsewhere. T/C gives the treated animals as a percentage of the vehicle group. Some entries give survivors of the animals treated and no T/C: the source holds a T/C of zero for them, seemingly a mark for toxic or unscored doses. Some doses without a T/C left all or most animals alive at the check, yet need not have been tolerated: the source hardly ever lists a survival T/C far under the control, and the zero likely stands for such cases as well. Survivors were counted at the toxicity check, usually on the fifth day, unless a day is given; later deaths do not show. Schedule codes are those of the source, read here as Q, the interval in days (D) or hours (H), X, the number of doses. Some entries were tested several times; their values stand side by side, smallest first. Some schedule codes hold Z or #, which are not explained here. For survival time, the PubChem record calls one and a half times the control and up active, and a quarter to a half above the control has no call in these data; cut-offs in other NCI protocols can differ. Some T/C values are followed by the survivors on the day toxicity was checked, most often the fifth; without a count, all were alive then.

Tested on: mice, LPC-1 plasma cell tumor ip, median survival T/C
Assay: NCI In Vivo Anticancer Drug Screen. Data for tumor model Lieberman Plasma Cell No. 1 (LPC-1) (intraperitoneal) in unknown mice
Conditions: T/C endpoint: median survival time, higher T/C = longer survival
Protocol: The antitumor activity of compounds was measured in mice bearing transplantable tumors. Survival or tumor size were measured and the results are expressed as the measurement made in the treated group (T) divided by the measurement made in the vehicle treated control group (C). The tumor model used in this assay is Lieberman Plasma Cell No. 1 (LPC-1) (intraperitoneal) in unknown mice

[1] = dose: 14.0 mg/kg/injection, schedule: Q01DX028 (sc), vehicle: carboxymethylcellulose (CMC)

N[C@@H](Cc1ccc(N(CCCl)CCCl)cc1)C(=O)O
T/C (dose: 0.39 mg/kg/injection, schedule: Q01DX028 (sc), vehicle: saline): 134 % of control [11 of 12 alive]
T/C (dose: 0.5 mg/kg/injection, schedule: Q01DX028 (sc), vehicle: methylcellulose (MC)): 125 % of control
T/C (dose: 0.93 mg/kg/injection, schedule: Q01DX005 (oral), vehicle: carboxymethylcellulose (CMC)): 133 % of control [7 of 8 alive]
T/C (dose: 0.93 mg/kg/injection, schedule: Q## X010 (oral), vehicle: carboxymethylcellulose (CMC)): 133 % of control [6 of 8 alive]
T/C (dose: 0.93 mg/kg/injection, schedule: Q## X015 (oral), vehicle: carboxymethylcellulose (CMC)): 133 % of control
T/C (dose: 1.0 mg/kg/injection, schedule: Q01DX028 (sc), vehicle: methylcellulose (MC)): 144 % of control
T/C (dose: 1.08 mg/kg/injection, schedule: Q01DX028 (sc), vehicle: saline): 134 [11 of 12 alive], 165 [11 of 12 alive], 179, 189 % of control [6 of 8 alive]
survivor count (dose: 1.25 mg/kg/injection, schedule: Q01DX024 (ip), vehicle: saline): 5 of 8
T/C (dose: 1.8 mg/kg/injection, schedule: Q01DX028 (sc), vehicle: saline): 110 [11 of 12 alive], 168, 178 [7 of 8 alive], 202 % of control [10 of 12 alive]
T/C (dose: 1.87 mg/kg/injection, schedule: Q## X010 (oral), vehicle: carboxymethylcellulose (CMC)): 142 % of control [6 of 8 alive]
survivor count (dose: 1.9 mg/kg/injection, schedule: Q## X010 (ip), vehicle: saline): 5 of 8
T/C (dose: 2.0 mg/kg/injection, schedule: Q01DX028 (sc), vehicle: methylcellulose (MC)): 148 % of control
survivor count (dose: 2.5 mg/kg/injection, schedule: Q01DX024 (ip), vehicle: saline): 5 of 8
survivor count (dose: 3.0 mg/kg/injection, schedule: Q01DX005 (sc), vehicle: saline): 5 of 8
survivor count (dose: 3.8 mg/kg/injection, schedule: Q01DX005 (ip), vehicle: saline): 4 of 8
survivor count (dose: 5.0 mg/kg/injection, schedule: Q01DX005 (sc), vehicle: saline): 3 of 8
T/C (dose: 7.5 mg/kg/injection, schedule: Q01DX005 (ip), vehicle: saline): 126 % of control [7 of 8 alive]
survivor count (dose: 7.5 mg/kg/injection, schedule: Q## X010 (ip), vehicle: saline): 4 of 8
survivor count (dose: 7.5 mg/kg/injection, schedule: Q## X015 (oral), vehicle: carboxymethylcellulose (CMC)): 5 of 8 and 6 of 8
survivor count (dose: 8.0 mg/kg/injection, schedule: Q01DX028 (sc), vehicle: methylcellulose (MC)): 9 of 10
survivor count (dose: 8.4 mg/kg/injection, schedule: Q01DX001 (sc), vehicle: saline): 5 of 8
T/C (dose: 9.5 mg/kg/injection, schedule: Q01DX001 (oral), vehicle: carboxymethylcellulose (CMC)): 140 % of control
survivor count (dose: 14.0 mg/kg/injection, schedule: Q01DX001 (sc), vehicle: saline): 2 of 8
survivor count (dose: 14.0 mg/kg/injection, schedule: Q01DX005 (sc), vehicle: saline): 5 of 8
survivor count (dose: 15.0 mg/kg/injection, schedule: Q01DX005 (oral), vehicle: carboxymethylcellulose (CMC)): 5 of 8 and 7 of 8
survivor count (dose: 15.0 mg/kg/injection, schedule: Q## X010 (oral), vehicle: carboxymethylcellulose (CMC)): 7 of 8
survivor count (dose: 16.0 mg/kg/injection, schedule: Q01DX028 (sc), vehicle: methylcellulose (MC)): 8 of 10
survivor count (dose: 18.0 mg/kg/injection, schedule: Q01DX024 (oral), vehicle: carboxymethylcellulose (CMC)): 8 of 8
survivor count (dose: 23.0 mg/kg/injection, schedule: Q01DX001 (sc), vehicle: saline): 4 of 8
survivor count (dose: 30.0 mg/kg/injection, schedule: Q## X010 (oral), vehicle: carboxymethylcellulose (CMC)): 7 of 8
survivor count (dose: 30.0 mg/kg/injection, schedule: Q## X015 (oral), vehicle: carboxymethylcellulose (CMC)): 8 of 8
survivor count (dose: 38.0 mg/kg/injection, schedule: Q01DX001 (oral), vehicle: carboxymethylcellulose (CMC)): 7 of 8
survivor count (dose: 60.0 mg/kg/injection, schedule: Q## X010 (oral), vehicle: carboxymethylcellulose (CMC)): 4 of 8
survivor count (dose: 60.0 mg/kg/injection, schedule: Q## X015 (oral), vehicle: carboxymethylcellulose (CMC)): 5 of 8
survivor count (dose: 75.0 mg/kg/injection, schedule: Q01DX001 (oral), vehicle: carboxymethylcellulose (CMC)): 8 of 8
survivor count (dose: 130.0 mg/kg/injection, schedule: Q01DX001 (ip), vehicle: saline): 1 of 8
survivor count (dose: 150.0 mg/kg/injection, schedule: Q01DX001 (oral), vehicle: carboxymethylcellulose (CMC)): 6 of 8
survivor count (dose: 300.0 mg/kg/injection, schedule: Q01DX001 (oral), vehicle: carboxymethylcellulose (CMC)): 7 of 8

COc1cc2oc(=O)ccc2cc1CC=C(C)C
survivor count (dose: 12.5 mg/kg/injection, schedule: Q01DX028 (sc), vehicle: saline): 5 of 8
survivor count (dose: 50.0 mg/kg/injection, schedule: Q01DX028 (sc), vehicle: saline): 4 of 8
survivor count (dose: 100.0 mg/kg/injection, schedule: Q01DX028 (sc), vehicle: saline): 4 of 8

NC(CSC(c1ccccc1)(c1ccccc1)c1ccccc1)C(=O)O (configuration not stated)
T/C (dose: 30.0 mg/kg/injection, schedule: Q01DX028 (sc), vehicle: saline): 129 % of control [7 of 8 alive]

O=C(O)CCc1c[nH]c2ccc(N(CCCl)CCCl)cc12
T/C (dose: 4.0 mg/kg/injection, schedule: Q01DX028 (sc), vehicle: carboxymethylcellulose (CMC)): 139 % of control
T/C (dose: 8.4 mg/kg/injection, schedule: Q01DX028 (sc), vehicle: carboxymethylcellulose (CMC)): 135 % of control
survivor count [1]: 8 of 8

CN(N=O)C(N)=O
T/C (dose: 23.0 mg/kg/injection, schedule: Q01DX028 (sc), vehicle: saline): 140 % of control

O=c1ccc2cc(O)c(O)cc2o1
T/C (dose: 16.0 mg/kg/injection, schedule: Q01DX028 (sc), vehicle: steroid suspending solution): 138 % of control
survivor count (dose: 124.0 mg/kg/injection, schedule: Q01DX028 (sc), vehicle: steroid suspending solution): 5 of 10

CS(=O)(=O)OCCCCCOS(C)(=O)=O
T/C (dose: 20.0 mg/kg/injection, schedule: Q01DX028 (sc), vehicle: water): 141 % of control
T/C (dose: 30.0 mg/kg/injection, schedule: Q01DX028 (sc), vehicle: carboxymethylcellulose (CMC)): 146 % of control [9 of 10 alive]
T/C (dose: 80.0 mg/kg/injection, schedule: Q01DX028 (sc), vehicle: carboxymethylcellulose (CMC)): 128 % of control
survivor count (dose: 80.0 mg/kg/injection, schedule: Q01DX028 (sc), vehicle: water): 2 of 8
survivor count (dose: 120.0 mg/kg/injection, schedule: Q01DX028 (sc), vehicle: carboxymethylcellulose (CMC)): 2 of 10

CCN(CC)CCNc1ccc(C)c2sc3ccccc3c(=O)c12 (tested in a mixture with another compound)
T/C (dose: 200.0 mg/kg/injection, schedule: Q01DX028 (sc), vehicle: saline): 136 % of control [7 of 8 alive]

Cc1cc(N(CCCl)CCCl)ccc1C=Nc1ccc(F)cc1
survivor count (dose: 65.0 mg/kg/injection, schedule: Q01DX015 (sc), vehicle: carboxymethylcellulose (CMC)): 6 of 10
survivor count (dose: 108.0 mg/kg/injection, schedule: Q01DX015 (sc), vehicle: carboxymethylcellulose (CMC)): 6 of 10
survivor count (dose: 180.0 mg/kg/injection, schedule: Q01DX015 (sc), vehicle: carboxymethylcellulose (CMC)): 4 of 10
survivor count (dose: 300.0 mg/kg/injection, schedule: Q01DX015 (sc), vehicle: carboxymethylcellulose (CMC)): 5 of 10

O=NN(CCCl)C(=O)NC1CCCCC1
T/C (dose: 10.0 mg/kg/injection, schedule: Q01DX028 (sc), vehicle: carboxymethylcellulose (CMC)): 129 % of control
T/C [1]: 129 % of control
T/C (dose: 33.0 mg/kg/injection, schedule: Q01DX028 (sc), vehicle: carboxymethylcellulose (CMC)): 131 % of control [9 of 10 alive]
survivor count (dose: 50.0 mg/kg/injection, schedule: Q01DX028 (sc), vehicle: carboxymethylcellulose (CMC)): 6 of 10
